Drawing on patent US20100273732A1, “COMBINATION METHODS OF TREATING CANCER” (priority 2003, published 2010), this text covers IC50 for one compound.

SMILES strings stand for the structures.

One test relates to LnCap (prostate) cells. Put plainly: alamarBlue proliferation inhibition, drug combination experiments, LnCap. It is filed as cell-based. To be noted: Homo sapiens, 96 h, agent alone, 4 days, read-out: 50% inhibition Effective Dose. As to the method: (§1) Drug combination experiments were performed on five human cancer cell lines: T24 (bladder carcinoma), LnCap (prostate), MCF7 (breast), DLCL (non-Hodgkin's lymphoma) and LCC18 (colon carcinoid). Each cell line was cultured and incubated at 37° C. in its required medium: MEM a (10% FCS), RPMI 1640 (10% FCS), DME HG (10% FCS), enhanced RPMI (10% FCS), and Hites medium (5% FCS), respectively.
(§2) Adherent cell lines (T24, LnCap, MCF7 and LCC18) were plated on 96 well plates 24 hours before treatment with SAHA and anticancer agents, to allow time for the cells to attach to the well bottoms. DLCL, a suspension cell line, was plated on 96 well plates on the same day of the experiment. […]
(§3) After treatment, cells were incubated at 37° C. for 4 days. […] The reduction was measured by fluorescence using a SpectaMax GeminiXS® spectrofluorometric microtiter well plate reader (Molecular Devices Corporation, Sunnyvale, Calif.). Data was expressed as fluorescence emission intensity units as a function of time of incubation and analyzed using SOFTmax PRO® v. […]
(§4) a) 50% effective dose/4; b) 50% effective dose/2; c) 50% effective dose; d) 50% effective dose*2; and e) 50% effective dose*4. The dose that inhibits 50% of proliferation for each drug was determined in preliminary experiments in which cells were treated with a wide range of concentrations of SAHA alone and Irinotecan, 5-FU and Docetaxel alone. […]

Test [1] concerns T24 (bladder carcinoma) cells. Put plainly: alamarBlue proliferation inhibition, drug combination experiments, T24. It is filed as cell-based. To be noted: Homo sapiens, 96 h, agent alone, 4 days, read-out: 50% inhibition Effective Dose. As to the method:
as §1, §2, §3, §4

For the compound `O=C(CCCCCCC(=O)Nc1ccccc1)NO` [SAHA, suberoylanilide hydroxamic acid], the IC50 in the test with LnCap (prostate) cells was found to be 1.7 µM; in test [1] it was 5 µM.
